In patent USRE37952:
No constants are given. Whether binding was seen depends on the method and setting. Some results given as binding are weak or reduced against the parent protein; the word gives no strength.

Target: T1, hSOS1 Peptide (human)
T1 sequence (peptide): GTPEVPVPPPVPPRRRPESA
Test: biotinylated GST fusion (4 µg/ml) on peptide spotted on nitrocellulose

biotinylated GST-Grb2 fusion protein (from UniProt P08515 1-218; P62993 1-217)
binding: binds
